In patent US20170183667A1 (ANAEROPHARMA SCIENCE, published 2017):
These are yes or no findings as the source states them, for the method shown. Some entries that bind do so weakly or less than the wild type.

By UniProt entry, the sequences of proteins in these tests, tags left out. Where a name states a change or a piece, a line headed by the entry shows the natural chain unless it says otherwise. Residues count along the entry.
UniProt Q02242: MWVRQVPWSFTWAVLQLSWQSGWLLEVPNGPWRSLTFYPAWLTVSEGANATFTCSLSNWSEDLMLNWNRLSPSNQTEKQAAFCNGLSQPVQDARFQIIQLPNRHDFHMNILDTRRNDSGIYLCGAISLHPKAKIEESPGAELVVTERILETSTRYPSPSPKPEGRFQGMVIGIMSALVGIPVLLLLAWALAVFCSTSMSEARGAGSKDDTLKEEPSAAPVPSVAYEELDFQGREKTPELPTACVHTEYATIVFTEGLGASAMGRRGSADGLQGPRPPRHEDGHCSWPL
mouse PD-1 expressed on CD3/CD28-stimulated CD4 positive cells of Balb/c mouse spleen: residues 25-288 of Q02242
Recombinant Mouse PD-1 Fc Chimera (R&D Systems): residues 25-167 of Q02242
UniProt Q15116: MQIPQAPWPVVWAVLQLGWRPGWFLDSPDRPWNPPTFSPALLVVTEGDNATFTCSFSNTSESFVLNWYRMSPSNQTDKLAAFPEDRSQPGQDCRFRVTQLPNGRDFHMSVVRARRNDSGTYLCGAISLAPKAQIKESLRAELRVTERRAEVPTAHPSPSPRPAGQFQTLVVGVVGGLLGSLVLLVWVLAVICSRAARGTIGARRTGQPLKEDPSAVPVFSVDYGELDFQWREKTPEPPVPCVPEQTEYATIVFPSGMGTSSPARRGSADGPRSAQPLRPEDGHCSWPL
human PD-1 over-expressed on Jurkat cells and HEK293T cells: residues 25-288 of Q15116
Recombinant Human PD-1 Fc Chimera (R&D Systems): residues 25-167 of Q15116

What was measured:
[1] = target: Recombinant Mouse PD-1 Fc Chimera (R&D Systems) (mouse) (UniProt Q02242); experiment: ELISA, mPD-1 Fc chimera immobilised
[2] = target: mouse PD-1 expressed on CD3/CD28-stimulated CD4 positive cells of Balb/c mouse spleen (mouse) (UniProt Q02242); experiment: flow cytometry, scFv 10 ug/mL, anti-His-tag Alexa Fluor 488 detection
[3] = target: human PD-1 over-expressed on Jurkat cells and HEK293T cells (human) (UniProt Q15116); experiment: flow cytometry, HEK293T cells over-expressing human PD-1, scFv 10 ug/mL
[4] = target: human PD-1 over-expressed on Jurkat cells and HEK293T cells (human) (UniProt Q15116); experiment: flow cytometry
[5] = target: Recombinant Human PD-1 Fc Chimera (R&D Systems) (human) (UniProt Q15116); experiment: ELISA, hPD-1 Fc chimera immobilised
[6] = target: human PD-1 over-expressed on Jurkat cells and HEK293T cells (human) (UniProt Q15116); experiment: flow cytometry, Jurkat cells over-expressing human PD-1, scFv 10 ug/mL

Measured: binding

B1: anti-PD-1-3 scFv antibody purified from Bifidobacterium longum 105-A/pHuSP7L20-scFv-PD-1-3 strain (scFv)
scFv: DSAQTSAVVSSRSFPKASSVMEVRLLESGGGLVKPEGSLKLSCVASGFTFSDYFMSWVRQAPGKGLEWVAHIYTKSYNYATYYSGSVKGRFTISRDDSRSMVYLQMNNLRTEDTATYYCTRDGSGYPSLDFWGQGTQVTVSSGGGGSGGGGSGGGGSYELTQPPSASVNVGETVKITCSGDQLPKYFADWFHQRSDQTILQVIYDDNKRPSGIPERISGSSSGTTATLTIRDVRAEDEGDYYCFSGYVDSDSKLYVFGSGTQLTVLGHHHHHH
notes: also called anti-mouse PD-1 scFv antibody; mPD-1 scFv
binds: [1] | [2]

B2: anti-PD-1-2 scFv antibody purified from Bifidobacterium longum 105-A/pHuSP7L20-scFv-PD-1-2 strain (scFv)
scFv: DSAQTSAVVSSRSFPKASSVMQVQLQESGPGLVKPSQSLSLTCTVTGHSITSDYAWNWIRQFPGDKLEWMGYISYSGYTTYNPSLKSRVSITRDTSKNQFFLQLNSVTTEDTATYFCARDLDYGPWFAYWGQGTTVTVSSGGGGSGGGGSGGGGSDIQMTQSPASLSASVGETVTLTCRASENIHNYLAWYQQKQGKSPQLLVYNVKTLADGVPSRFSGSGSGTQYSLKINSLQPEDFGSYYCQHFWSSPWTFGGGTKLEIKRHHHHHH
notes: also called anti-human PD-1 antibody
binds: [3] | [4] | [5] | [6]
